According to patent publication US20020173640A1, “ADAM polynucleotides, polypeptides, and antibodies” (Human Genome Sciences, Inc., priority 1999, published 2002):
These are yes or no findings as the source states them, for the method shown. Some entries that bind do so weakly or less than the wild type.

Tests used:
[1] = target: T1, Bovine plasma alpha-2-macroglobulin (bovine) (UniProt Q7SIH1); experiment: α2-M binding assay; incubation at 37° C. for 16 h, SDS-PAGE, Western blot with anti-Flag M2 antibody
T1 sequence (looked up): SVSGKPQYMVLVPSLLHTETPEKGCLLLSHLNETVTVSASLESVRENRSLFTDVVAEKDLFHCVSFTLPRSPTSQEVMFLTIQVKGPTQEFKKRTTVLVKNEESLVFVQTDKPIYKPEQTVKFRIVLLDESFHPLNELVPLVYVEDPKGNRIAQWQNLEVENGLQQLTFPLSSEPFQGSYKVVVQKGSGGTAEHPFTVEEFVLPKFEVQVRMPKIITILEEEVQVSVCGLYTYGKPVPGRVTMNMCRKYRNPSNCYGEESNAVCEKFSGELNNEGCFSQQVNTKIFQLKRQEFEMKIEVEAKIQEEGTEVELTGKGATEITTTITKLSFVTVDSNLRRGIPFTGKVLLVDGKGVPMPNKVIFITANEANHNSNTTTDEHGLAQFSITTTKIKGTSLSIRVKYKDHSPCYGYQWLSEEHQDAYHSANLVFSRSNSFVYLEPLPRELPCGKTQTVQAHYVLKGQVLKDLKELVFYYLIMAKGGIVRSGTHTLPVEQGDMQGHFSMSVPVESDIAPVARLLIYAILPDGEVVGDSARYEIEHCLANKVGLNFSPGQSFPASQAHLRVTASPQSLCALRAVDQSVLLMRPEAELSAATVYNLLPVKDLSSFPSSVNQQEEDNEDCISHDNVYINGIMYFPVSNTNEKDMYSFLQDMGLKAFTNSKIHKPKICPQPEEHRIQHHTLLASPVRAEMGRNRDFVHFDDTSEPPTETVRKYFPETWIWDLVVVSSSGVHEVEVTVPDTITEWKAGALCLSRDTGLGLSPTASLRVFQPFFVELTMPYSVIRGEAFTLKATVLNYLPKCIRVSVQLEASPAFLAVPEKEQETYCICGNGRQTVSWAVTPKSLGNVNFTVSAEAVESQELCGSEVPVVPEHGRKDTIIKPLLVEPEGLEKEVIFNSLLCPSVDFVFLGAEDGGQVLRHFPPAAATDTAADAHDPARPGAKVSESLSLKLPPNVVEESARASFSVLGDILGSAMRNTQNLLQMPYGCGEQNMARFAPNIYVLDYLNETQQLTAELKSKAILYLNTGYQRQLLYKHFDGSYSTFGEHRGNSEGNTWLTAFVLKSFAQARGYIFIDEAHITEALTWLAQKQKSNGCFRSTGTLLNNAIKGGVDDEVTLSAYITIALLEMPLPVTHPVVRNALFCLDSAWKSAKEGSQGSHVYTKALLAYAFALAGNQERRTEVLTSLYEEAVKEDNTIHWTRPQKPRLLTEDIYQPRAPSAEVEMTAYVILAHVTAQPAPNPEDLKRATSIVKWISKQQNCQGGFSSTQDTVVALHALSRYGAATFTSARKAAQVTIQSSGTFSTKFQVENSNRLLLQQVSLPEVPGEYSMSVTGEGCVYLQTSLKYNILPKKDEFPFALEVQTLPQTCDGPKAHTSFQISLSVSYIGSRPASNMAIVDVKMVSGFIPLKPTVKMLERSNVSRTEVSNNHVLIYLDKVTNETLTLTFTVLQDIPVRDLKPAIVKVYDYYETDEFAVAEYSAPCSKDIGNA

[2] = target: T1, Bovine plasma alpha-2-macroglobulin (bovine); experiment: complex formation and cleavage assays, SDS-PAGE
[3] = target: T1, Bovine plasma alpha-2-macroglobulin (bovine); experiment: α2-M binding / complex formation assay
[4] = target: T1, Bovine plasma alpha-2-macroglobulin (bovine); experiment: α2-M cleavage assay; SDS-PAGE with silver staining; additional 800-900 kDa band stable to heat denaturation in SDS, EDTA and 2-mercaptoethanol

Measured: binding

B1: Flag-tagged hADAM-19 protein (residues 26-701 of SEQ ID NO: 9) (protein)
chain: REPGWTRGSEEGSPKLQHELIIPQWKTSESPVREKHPLKAELRVMAEGRELILDLEKNEQLFAPSYTETHYTSSGNPQTTTRKLEDHCFYHGTVRETELSSVTLSTCRGIRGLITVSSNLSYVIEPLPDSKGQHLIYRSEHLKPPPGNCGFEHSKPTTRDWALQFTQQTKKRPRRMKREDLNSMKYVELYLVADYLEFQKNRRDQDATKHKLIEIANYVDKFYRSLNIRIALVGLEVWTHGNMCEVSENPYSTLWSFLSWRRKLLAQKYHDNAQLITGMSFHGTTIGLAPLMAMCSVYQSGGVNMDHSENAIGVAATMAHEMGHNFGMTHDSADCCSASAADGGCIMAAATGHPFPKVFNGCNRRELDRYLQSGGGMCLSNMPDTRMLYGGRRCGNGYLEDGEECDCGEEEECNNPCCNASNCTLRPGAECAHGSCCHQCKLLAPGTLCREQARQCDLPEFCTGKSPHCPTNFYQMDGTPCEGGQAYCYNGMCLTYQEQCQQLWGPGARPAPDLCFEKVNVAGDTFGNCGKDMNGEHRKCNMRDAKCGKIQCQSSEARPLESNAVPIDTTIIMNGRQIQCRGTHVYRGPEEEGDMLDPGLVMTGTKCGYNHICFEGQCRNTSFFETEGCGKKCNGHGVCNNNQNCHCLPGWAPPFCNTPGHGGSIDSGPMPPESVG
binds: all assays above
